Test results taken from PubChem BioAssay AID2283097 (EPA ToxCast).
Inconclusive means that the source gave no clear call. Such entries were picked first, then a sample of the others. Potencies beside an inconclusive call are fits to weak or partial responses and may not hold up. Active and inactive are the calls of the source. The calls were made as follows: active = hit-call score of the fitted dose curve at least 0.9, where 1 is the maximum; inconclusive = response in the unintended direction; inactive = score below 0.9.

By UniProt entry, the sequences of proteins in these tests, tags left out. Where a name states a change or a piece, a line headed by the entry shows the natural chain unless it says otherwise.
UniProt Q16678: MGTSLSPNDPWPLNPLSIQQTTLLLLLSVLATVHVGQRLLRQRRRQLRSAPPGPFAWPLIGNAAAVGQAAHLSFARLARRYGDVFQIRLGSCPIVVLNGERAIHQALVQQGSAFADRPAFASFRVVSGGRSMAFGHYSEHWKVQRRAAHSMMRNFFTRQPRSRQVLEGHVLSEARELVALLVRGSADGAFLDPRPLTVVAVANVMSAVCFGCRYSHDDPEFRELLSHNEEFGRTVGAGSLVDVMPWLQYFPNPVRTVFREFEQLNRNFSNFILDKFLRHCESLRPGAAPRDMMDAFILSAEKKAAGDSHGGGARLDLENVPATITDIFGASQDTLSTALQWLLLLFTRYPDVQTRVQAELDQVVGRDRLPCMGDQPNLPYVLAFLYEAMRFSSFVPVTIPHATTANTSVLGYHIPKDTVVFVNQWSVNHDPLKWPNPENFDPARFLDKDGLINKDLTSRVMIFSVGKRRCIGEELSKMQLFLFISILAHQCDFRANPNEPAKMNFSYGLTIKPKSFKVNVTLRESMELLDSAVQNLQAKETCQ

Target: human CYP1B1, CYP1B1 (gene 1545) (UniProt Q16678)
Assay: NVS_ADME_hCYP1B1: NovaScreen (NVS) CYP450-related Enzyme Activity (ADME) Assay for human CYP1B1
Protocol: NVS_ADME_hCYP1B1 is a biochemical, single-readout assay that uses extracted gene-proteins in a cell-free assay. Measurements were taken 1 hour after chemical dosing in a 96-well plate.NVS_ADME_hCYP1B1 is one of one assay component(s) measured or calculated from the NVS_ADME_hCYP1B1 assay. It is designed to make measurements of enzyme activity, a form of enzyme reporter, as detected with fluorescence intensity signals by Fluorescence technology.Data from the assay component NVS_ADME_hCYP1B1 was analyzed into 1 assay endpoint. This assay endpoint, NVS_ADME_hCYP1B1, was analyzed in the positive analysis fitting direction relative to Acetonitrile as the negative control and baseline of activity. Using a type of enzyme reporter, loss-of-signal activity can be used to understand changes in the enzymatic activity as they relate to the gene CYP1B1. Furthermore, this assay endpoint can be referred to as a primary readout, because this assay has produced multiple assay endpoints where this one serves a enzymatic activity function. To generalize the intended target to other relatable targets, this assay endpoint is annotated to the cyp intended target family, where the subfamily is xenobiotic metabolism.
Binding assays used specific radioligands (tritiated, iodinated) with non-radioactive competitive displacement ligands in agonist or antagonist protocols (as indicated) and various reference compounds and inhibitors to titrate specific binding to receptors and transporters. Most enzyme assays (CYPs, kinases, phosphatases, proteases, HDACs) used recombinant protein and specific substrates (fluorescence mostly, some colorimetric and radioactive) and inhibitors, followed by a biochemical separation of substrate and product. All assays for the biochemical HTS were initially run in duplicate at a single concentration (10 uM for CYP450 assays and 25 uM for all others). Assay-chemical combinations meeting a pre-defined threshold (e.g., 30% inhibition and other criteria defined below) were then run in singleton concentration-response format with maximum concentration of 20 uM for CYPs and 50 uM for all others. Each assay was run with positive and negative controls, and concurrent controls on every plate. The follow-up (secondary) screen tested active chemical-pairs in concentration series, as well as a few additional assays not tested in the primary screen, some selected negative inactives, and several cases re-run in the concentration series for confirmatory purposes.

Row | Structure (SMILES) | AC50 | outcome
1 | CCOP(=O)(OCC)Oc1cc(C)nc(C(C)C)n1 | inconclusive: 1110 nM | –
2 | CCCN(CCOc1c(Cl)cc(Cl)cc1Cl)C(=O)n1ccnc1 | – | inactive
3 | O=C(Nc1ccccc1)Nc1ccnc(Cl)c1 | inconclusive: 59.9 nM | –
4 | Cc1ccn2nc(S(=O)(=O)Nc3c(F)cccc3F)nc2n1 | – | inactive
5 | COC(=O)C=C(C)OP(=O)(OC)OC | inconclusive: 374 nM | –
6 | CCCCSP(=O)(SCCCC)SCCCC | inconclusive: 320 nM | –
7 | Cc1ccc(-c2c(Cl)nc(C#N)n2S(=O)(=O)N(C)C)cc1 | – | inactive
8 | CS(=O)(=O)c1cc(C(F)(F)F)ccc1C(=O)c1cnoc1C1CC1 | inconclusive: 73.8 nM | –
9 | N#Cc1c(Cl)cccc1Cl | inconclusive: 68.1 nM | –
10 | COP(=S)(OC)SCn1nnc2ccccc2c1=O | active: 498 nM | –
11 | COCC(C)N(C(=O)CCl)c1c(C)csc1C (configuration not stated) | inconclusive: 87.5 nM | –
12 | CCOP(=S)(OCC)Oc1cc(C)nc(C(C)C)n1 | inconclusive: 10000 nM | –

One compound at a time (already shown). Values in the order: AC50	outcome
`Cc1ccn2nc(S(=O)(=O)Nc3c(F)cccc3F)nc2n1` as listed: –	inactive
`CCOP(=S)(OCC)Oc1cc(C)nc(C(C)C)n1` as listed: inconclusive: 10000 nM	–
